Paper PMC6925144, “A prospective compound screening contest identified broader inhibitors for Sirtuin 1” (Scientific Reports, 2019)
Over roughly 3,200 compounds, “TSA(with NAD+) / Primary screening (TSA) / delta Tm (K)” has its median near -0.04; the highest 2% begin near 0.37. The list shows a part of the results.

By UniProt entry, the sequences of proteins in these tests, tags left out. Residues count along the entry.
UniProt Q96EB6, 2-747 limits assumed: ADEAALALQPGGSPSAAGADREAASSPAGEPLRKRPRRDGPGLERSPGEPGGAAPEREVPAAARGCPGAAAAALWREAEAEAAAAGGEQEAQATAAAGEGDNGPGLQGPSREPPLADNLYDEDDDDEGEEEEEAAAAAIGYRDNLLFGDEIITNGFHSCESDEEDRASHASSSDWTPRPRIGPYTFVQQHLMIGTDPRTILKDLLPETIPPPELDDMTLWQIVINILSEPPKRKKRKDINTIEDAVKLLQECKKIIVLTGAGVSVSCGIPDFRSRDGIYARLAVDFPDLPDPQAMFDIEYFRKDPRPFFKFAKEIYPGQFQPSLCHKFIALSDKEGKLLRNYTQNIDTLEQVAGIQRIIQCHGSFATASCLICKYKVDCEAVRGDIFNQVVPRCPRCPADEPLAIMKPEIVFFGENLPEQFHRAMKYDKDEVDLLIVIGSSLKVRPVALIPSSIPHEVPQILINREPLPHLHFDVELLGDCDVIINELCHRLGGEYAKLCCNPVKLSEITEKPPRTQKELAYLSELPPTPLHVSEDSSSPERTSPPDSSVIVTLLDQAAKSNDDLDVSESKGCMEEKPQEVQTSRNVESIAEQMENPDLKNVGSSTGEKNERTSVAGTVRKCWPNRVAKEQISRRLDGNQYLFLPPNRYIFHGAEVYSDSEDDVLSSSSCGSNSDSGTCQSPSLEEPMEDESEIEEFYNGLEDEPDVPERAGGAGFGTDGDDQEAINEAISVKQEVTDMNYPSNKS

The molecules below were run against NAD-dependent deacetylase Sirtuin 1 (human, UniProt Q96EB6) (assay: primary screen, delta tm). Settings: 10 µM.
Design: single well (n = 1, as 'the same TSA')
Description: A total of 3,192 compounds extracted from the proposed lists were first screened by thermal shift assay (TSA), which determined a melting temperature shift (ΔTm) of Sirtuin 1 upon the addition of a test compound at a concentration of 10 µM (n = 1) with primary hit criteria of ΔTm > 0.45 K or ΔTm < −1.5 K. Primary hits (48 compounds) were retested in the same assay at three concentrations (5, 10, 20 µM, n = 4) for hit confirmation and for dose-dependency check. Secondary hits (41 compounds) were checked their selectivity for Sirtuin 1 based on counterscreening on unrelated protein targets (bovine carbonic anhydrase (CA) and recombinant SH2 domain of hABL1 kinase (ABL1)) at three different concentrations (5, 10, 20 µM, n = 4), which yielded 38 hit compounds, hereafter referred to as TSA hits. The TSA screening above was conducted in the absence of NAD+. As noted, the structure of Sirtuin 1 is different in the presence of NAD+ and substrate. The chemical profile of TSA hits found from the different conditions could be different. […] As a result, 39 TSA hits were found.

Structure (SMILES) | TSA(with NAD+) / Primary screening (TSA) / delta Tm (K)
O=c1[nH]c2ccc(CNCc3ccsc3)cc2[nH]1 | -0.05 K
O=C(CCc1ccccc1)Nc1ccccc1Cc1ccccc1 | -0.06 K
CC(C)N(CC(N)=O)Cc1sc2ccccc2c1Cl | -0.19 K
CCN1CCC(N)C1 (centres unmarked) | -0.28 K
CC(=O)Nc1ccc(NC(=O)c2ccccc2SCC(=O)NC23CC4CC(CC(C4)C2)C3)cc1 | 0.06 K
CCN(CC)C1CCN(C(=O)Nc2cc(-n3cnnn3)ccc2F)C1 (centres unmarked) | -0.06 K
COc1ccc(N(C)S(=O)(=O)c2cccc(C(=O)Nc3ccc(Br)c(C(F)(F)F)c3)c2)cc1 | 0.69 K
CC(C)NS(=O)(=O)NC(C)C(=O)NCCc1c[nH]c2ccccc12 (centres unmarked) | -0.01 K
O=C(O)c1ccc2[nH]c3c(c2c1)CNCC3 | -0.09 K
NC(=O)CC1CCN(C(=O)CCc2c[nH]c3ccccc23)CC1 | -0.03 K
CC(O)CN1CCC(CN(C)Cc2cccc(C(N)=O)c2)CC1 (centres unmarked) | -0.02 K
Cn1c(-c2ccccc2)c(C(=O)N2CCCC2)c2ccccc21 | 0.07 K
Cc1cc(C(=O)COC(=O)c2ccc(C(N)=O)cc2)c(C)n1CC1CCCO1 (centres unmarked) | -0.13 K
O=C(NC(=S)Nc1ccc(-c2nc3ccccc3[nH]2)cc1)C12CC3CC(CC(C3)C1)C2 | 0.43 K
N#CC(C(=O)CN1CCN(Cc2ccccc2)CC1)c1ccccc1 (centres unmarked) | 0.03 K
CCOCCN | -0.06 K
CC(=O)N1N=C(c2ccc(O)cc2)CC1c1ccco1 (centres unmarked) | -0.04 K
Cc1ccc(CNc2ncnc3ccsc23)cc1 | -0.13 K
Cc1c(C(=O)O)sc2nc(SCC(=O)N3CCCC3)[nH]c(=O)c12 | -0.09 K
COc1ccc2nc(SCC(N)=O)[nH]c2c1 | -0.22 K
CCCc1nc(CSc2nccn2Cc2ccccn2)cs1 | -0.03 K
Nc1nc(COC(=O)C2CCN(C(=O)NCc3ccco3)CC2)nc2ccccc12 | -0.09 K
O=C1NC(c2sc3ccccc3c2Cl)Nc2ccccc21 (centres unmarked) | -0.24 K
N#Cc1ccc(Cl)cc1NC(=O)COC(=O)c1nc(-c2ccccc2)n(-c2ccccc2)n1 | -0.04 K

Structure (SMILES) | TSA(with NAD+) / Primary screening (TSA) / delta Tm (K)
CC(OC(=O)c1csc(-c2ccccc2)n1)C(=O)NCc1ccco1 (centres unmarked) | -0.13 K
O=C1C(NCc2cscn2)CCCN1c1cccnc1 (centres unmarked) | 0.08 K
NC(=O)COC(=O)c1ccc(OCC(=O)Nc2cccc(C(F)(F)F)c2)cc1 | 0.23 K
Cc1cc(-c2csc(NC(=O)c3ccc(NC(N)=O)cc3)n2)c(C)n1CCc1ccccc1 | 0.23 K
Cc1ccc(Cn2nc(C)c(/C=C/C(=O)c3ccc(OC(C)C(=O)O)cc3)c2C)cc1 (centres unmarked) | -0.23 K
Cc1cc(C)c(OC(=O)CCc2c(C)nc3c(C(N)=O)cnn3c2C)c(C)c1 | -0.21 K
Cc1ccc(O)c(C(=O)N2CCC(=C3C(=O)Nc4ccccc43)CC2)c1 | 0.09 K
CC(C)(C)CN | -0.13 K
NC(=O)C1CCN(c2ncnc3ccsc23)CC1 | 0.15 K
O=C(NOCCC(F)(F)F)c1ccc(-c2nnc(S)o2)cc1 | -0.14 K
Cc1c(C(=O)NC2CCCCCC2)oc2c1ccc1ccccc12 | -0.14 K
COc1ccc(N2CC(=O)C(c3n(C)c4ccccc4[n+]3C)=C2N)cc1 | -0.08 K
O=C(O)/C=C/c1nc2ccccc2s1 | -0.03 K
Cc1cccc(C(C)(C)CNC(=O)c2ccc3c(c2)NC(=O)CCN3C)c1 | 0.15 K
Cn1cc(S(=O)(=O)Nc2ccc3c(c2)CCCN3Cc2ccccc2)cc1C(N)=O | 0.03 K
CN(C)S(=O)(=O)c1cccc(NC(=S)NNc2ccnc3cc(Cl)ccc23)c1 | -0.21 K
CCCOc1ccc(C(=O)C2=C(O)C(=O)N(CCN3CCOCC3)C2c2ccc(OC)cc2)cc1 (centres unmarked) | 0.05 K
Cc1ccc2[nH]c3c(c2c1)CCCC3=O | -0.01 K
c1ccc2c(c1)oc1c(N3CCC(n4ccnn4)CC3)ncnc12 | -0.23 K
COc1ccccc1SCc1cc(=O)n2ccccc2n1 | 0.02 K
COc1cc(C=C(C(=O)NCC2CCCO2)C(=O)NCC2CCCO2)ccc1OCC(=O)Nc1ccc(C)cc1 (centres unmarked) | -0.15 K
CC1CCc2c(sc3ncnc(OCC(=O)N4CCc5ccccc54)c23)C1 (centres unmarked) | 0.15 K
COc1cc(OC)c(OC)cc1C=C1C(=O)NC(=S)NC1=O | -0.16 K

Individual results from above.
For TSA(with NAD+) / Primary screening (TSA) / delta Tm (K), `CCCOc1ccc(C(=O)C2=C(O)C(=O)N(CCN3CCOCC3)C2c2ccc(OC)cc2)cc1` (centres unmarked) is entered as 0.05 K
For TSA(with NAD+) / Primary screening (TSA) / delta Tm (K), `Cc1ccc2[nH]c3c(c2c1)CCCC3=O` is entered as -0.01 K
